The whole screen tested about 580,000 compounds, of which about 6,100 (1.1%) were called active. This list was built around the results that the source calls inconclusive (neither active nor inactive); the mix of calls is not that of the screen. The call rests on the fitted dose curve; in most records, active means well fitted inhibition curve with a large enough effect; inconclusive means small, poorly fitted or top-dose-only effect, or another doubt; inactive means no such curve, though single readings can be large or run the other way. Potencies of inconclusive entries are doubtful fits and often do not repeat.
Biological target: Polyunsaturated fatty acid lipoxygenase ALOX12 (Homo sapiens) (UniProt P18054)
Test: Primary qHTS assay for inhibitors of human arachidonate 12S-lipoxygenase (ALOX12): Round 2
Settings: purified 12hLO, xylenol orange hydroperoxide absorbance; activity change, negative = inhibition: at 108 µM (top of the series) unless noted
Method in brief: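 Purified human 12hLO at 150 nM in 25 mM Hepes, 0.01% Triton X-100, pH 7.0, preincubated 15 min at room temperature with compound. Reaction started with 40 uM arachidonic acid, 30 min at room temperature. Hydroperoxide measured by Fe-xylenol orange, 573/405 nm absorbance ratio.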
On the % scale 0 is the no-effect control and ±100 the full control effect; potency means the concentration at half of the fitted maximal effect.

Chains of the proteins cited; added tags and fusions are not shown. Lines headed by an entry give the natural chain unless they say otherwise; changes in a name come on top.
UniProt P18054: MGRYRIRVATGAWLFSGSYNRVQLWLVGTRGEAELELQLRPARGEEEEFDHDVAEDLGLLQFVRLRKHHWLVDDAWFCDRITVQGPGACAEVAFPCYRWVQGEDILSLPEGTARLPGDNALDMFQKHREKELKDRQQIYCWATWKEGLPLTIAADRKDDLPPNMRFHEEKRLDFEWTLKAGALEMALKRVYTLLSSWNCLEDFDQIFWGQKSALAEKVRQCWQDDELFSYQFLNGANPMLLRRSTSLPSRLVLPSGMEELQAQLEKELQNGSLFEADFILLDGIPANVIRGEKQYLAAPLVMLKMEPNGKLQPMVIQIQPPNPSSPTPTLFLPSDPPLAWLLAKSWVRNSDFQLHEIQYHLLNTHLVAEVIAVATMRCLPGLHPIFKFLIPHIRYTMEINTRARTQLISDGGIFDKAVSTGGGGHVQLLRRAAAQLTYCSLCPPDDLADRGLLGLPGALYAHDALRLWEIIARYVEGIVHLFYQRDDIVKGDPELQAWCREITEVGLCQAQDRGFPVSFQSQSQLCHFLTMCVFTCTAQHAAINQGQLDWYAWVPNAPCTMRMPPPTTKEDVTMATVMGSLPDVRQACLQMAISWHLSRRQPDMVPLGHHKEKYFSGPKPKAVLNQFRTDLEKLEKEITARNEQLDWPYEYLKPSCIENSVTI

Row | SMILES | Potency | activity change, negative = inhibition
1 | COc1ccc(NS(=O)(=O)c2cc(NC(=O)c3cnc(C)cn3)ccc2N2CCCCC2)cc1 | inconclusive: 89.1 µM [inhibitor, partial curve, poor fit] | 
2 | COc1ccc(S(=O)(=O)/N=C2\C=C(NS(=O)(=O)c3ccccc3)C(=O)c3ccccc32)cc1 | inconclusive: 56.2 µM [inhibitor, partial curve, poor fit] | 
3 | Cc1ccc(-c2csc3nc(-c4ccncc4)[nH]c(=O)c23)cc1 |  | inactive: 14.7%
4 | CCOc1cccc2sc(NC(=O)c3ccc(S(=O)(=O)N4CCCCC4C)cc3)nc12 (stereo unspecified) | inconclusive: 100 µM [inhibitor, partial curve, poor fit] | 
5 | Cn1cccc1-c1nc2ccccc2[nH]1 | inconclusive: 112 µM [inhibitor, single point] | 
6 | CCNC(=O)COC(=O)c1cc(S(=O)(=O)N2CCCc3ccccc32)ccc1Cl |  | inactive: -25.9%
7 | O=C(CNC(=O)c1cccc(S(=O)(=O)N2CCc3ccccc32)c1)Nc1ccc(F)c(F)c1F |  | inactive: -7.76%
8 | CCN(CC)S(=O)(=O)c1ccc(NC(=O)CCC2CCCCC2)cc1 |  | inactive: 0% [at 57.4 µM]
9 | CCn1c(SCC(=O)Nc2cccc(C)c2)nc2c(c1=O)SC(C)C2 (stereo unspecified) | inconclusive: 15.8 µM [inhibitor, partial curve, poor fit] | 
10 | CCOc1cccc2sc(N(CCCN(C)C)C(=O)c3ccc(S(=O)(=O)N(C)Cc4ccccc4)cc3)nc12 | inconclusive: 50.1 µM [inhibitor, partial curve, poor fit] | 
11 | COc1cc(CN2CCN(C(c3ccccc3)c3ccccc3)CC2)cc(OC)c1OC | inconclusive: 11.2 µM [inhibitor, full curve, poor fit] | 
12 | O=[N+]([O-])c1ccccc1/C=N/n1c(COc2ccccc2)n[nH]c1=S | inconclusive: 44.7 µM [inhibitor, partial curve, poor fit] | 
13 | CC(C)(C)c1cc2cccnc2n1Cc1ccccc1 | inconclusive: 39.8 µM [inhibitor, partial curve, poor fit] | 
14 | CC(=O)OCC1OC(n2c(-c3ccc(Cl)cc3)ccc(C#N)c2=S)C(OC(C)=O)C(OC(C)=O)C1OC(C)=O (stereo unspecified) | inconclusive: 63.1 µM [inhibitor, partial curve, poor fit] | 
15 | Cc1ccc(Nc2c3c(nc4ccccc24)CCC3)cc1 | inconclusive: 100 µM [inhibitor, single point] | 
16 | Cc1ccc(CNC(=O)C2CC(c3cccc(F)c3)=NO2)cc1 (stereo unspecified) | inconclusive: 35.5 µM [inhibitor, partial curve, poor fit] | 
17 | COc1ccc2c(Cl)c(C(N)=O)sc2c1 | inconclusive: 0.355 µM [inhibitor, full curve, poor fit] | 
18 | Cc1cc(N2C(=O)C(O)=C(C(=O)c3cc4ccccc4o3)C2c2cccs2)no1 (stereo unspecified) | inconclusive: 50.1 µM [inhibitor, partial curve, poor fit] | 
19 | CN(C)/C=C/C(=O)c1ccc(Cl)c([N+](=O)[O-])c1 | inconclusive: 50.1 µM [inhibitor, partial curve, poor fit] | 
20 | Cc1ccc(NC(=O)C2=NNC(=O)CC2)cc1S(=O)(=O)Nc1ccc(SC(F)F)cc1 | inconclusive: 44.7 µM [inhibitor, partial curve, poor fit] | 
21 | CSC(NS(=O)(=O)c1cccs1)=C(c1nc2ccccc2s1)c1nc2ccccc2s1 | inconclusive: 50.1 µM [inhibitor, partial curve, poor fit] | 
22 | O=C1NC2(CCN(C(=O)NC3CCCC3)CC2)Oc2ccccc21 |  | inactive: 9.63%

Of the compounds above, twelve contain nitrogen in an aromatic ring.
Row | SMILES | Potency | activity change, negative = inhibition
1 | COc1ccc(NS(=O)(=O)c2cc(NC(=O)c3cnc(C)cn3)ccc2N2CCCCC2)cc1 | inconclusive: 89.1 µM [inhibitor, partial curve, poor fit] | 
3 | Cc1ccc(-c2csc3nc(-c4ccncc4)[nH]c(=O)c23)cc1 |  | inactive: 14.7%
4 | CCOc1cccc2sc(NC(=O)c3ccc(S(=O)(=O)N4CCCCC4C)cc3)nc12 (stereo unspecified) | inconclusive: 100 µM [inhibitor, partial curve, poor fit] | 
5 | Cn1cccc1-c1nc2ccccc2[nH]1 | inconclusive: 112 µM [inhibitor, single point] | 
9 | CCn1c(SCC(=O)Nc2cccc(C)c2)nc2c(c1=O)SC(C)C2 (stereo unspecified) | inconclusive: 15.8 µM [inhibitor, partial curve, poor fit] | 
10 | CCOc1cccc2sc(N(CCCN(C)C)C(=O)c3ccc(S(=O)(=O)N(C)Cc4ccccc4)cc3)nc12 | inconclusive: 50.1 µM [inhibitor, partial curve, poor fit] | 
12 | O=[N+]([O-])c1ccccc1/C=N/n1c(COc2ccccc2)n[nH]c1=S | inconclusive: 44.7 µM [inhibitor, partial curve, poor fit] | 
13 | CC(C)(C)c1cc2cccnc2n1Cc1ccccc1 | inconclusive: 39.8 µM [inhibitor, partial curve, poor fit] | 
14 | CC(=O)OCC1OC(n2c(-c3ccc(Cl)cc3)ccc(C#N)c2=S)C(OC(C)=O)C(OC(C)=O)C1OC(C)=O (stereo unspecified) | inconclusive: 63.1 µM [inhibitor, partial curve, poor fit] | 
15 | Cc1ccc(Nc2c3c(nc4ccccc24)CCC3)cc1 | inconclusive: 100 µM [inhibitor, single point] | 
18 | Cc1cc(N2C(=O)C(O)=C(C(=O)c3cc4ccccc4o3)C2c2cccs2)no1 (stereo unspecified) | inconclusive: 50.1 µM [inhibitor, partial curve, poor fit] | 
21 | CSC(NS(=O)(=O)c1cccs1)=C(c1nc2ccccc2s1)c1nc2ccccc2s1 | inconclusive: 50.1 µM [inhibitor, partial curve, poor fit] | 

Next compounds:

Row | SMILES | Potency | activity change, negative = inhibition
23 | NC(=O)c1nnsc1-c1ccco1 | inconclusive: 28.2 µM [inhibitor, single point] | 
24 | O=C(CN1CC2CC(C1)[C@H]1CCCC(=O)N1C2)NCCCN1CCCC1=O (stereo partly specified) |  | inactive: 24.6%
25 | O=C(NCc1ccc2c(c1)OCO2)c1cc(F)c(F)cc1Cl | inconclusive: 79.4 µM [inhibitor, single point] | 
26 | c1ccc(C2(c3ccccc3)CCCN(Cc3ncccn3)C2)cc1 |  | inactive: -18.5%
27 | COc1ccc(Br)cc1CN(C)CC(=O)NCc1ccc(F)cc1 | inconclusive: 1 µM [inhibitor, full curve, poor fit] | 
29 | Cc1nc(Nc2ccccc2)sc1C |  | inactive: -11%
30 | Cc1cccc(OC[C@H]2C[C@@H](NC(=O)c3ccc(C#N)cc3)[C@H](O)[C@@H]2O)n1 | active: 25.1 µM | 
31 | Nc1nc(Nc2cccc(F)c2)nc2ccccc12 | inconclusive: 44.7 µM [inhibitor, partial curve, poor fit] | 
32 | O=C(NCC1(COc2cnccn2)C[C@@H](O)[C@@H](O)C1)C1CCCC1 (stereo partly specified) | inconclusive: 22.4 µM [inhibitor, partial curve, poor fit] | 
33 | CCCCc1ccc(C(=O)Oc2ccc(C(C)=O)cc2)cc1 | inconclusive: 2.24 µM [inhibitor, partial curve, poor fit] | 
34 | O=C(Nc1cc(S(=O)(=O)N2CCOCC2)ccc1N1CCOCC1)c1ccc(S(=O)(=O)N2CCCCC2)cc1 |  | inactive: 1.18%
35 | CC1(C)CC(NNCCC#N)=CC(=[N+]2CCCC2)C1 | inconclusive: 12.6 µM [inhibitor, full curve, poor fit] | 
36 | CC1Cc2cc(/C(O)=C3/C(=O)C(=O)N(CCN4CCOCC4)C3c3cccc(Cl)c3)ccc2O1 (stereo unspecified) | inconclusive: 3.98 µM [inhibitor, full curve, poor fit] | 
37 | CN(C(=O)CSc1nc2ccsc2c(=O)n1CCc1cccs1)c1ccccc1 | inconclusive: 112 µM [inhibitor, partial curve, poor fit] | 
38 | CN1CCCN(C(=O)[C@@H]2C[C@@H](Sc3nc4ccccc4[nH]3)CN2Cc2ccc(OC(F)(F)F)cc2)CC1 |  | inactive: -6.95%
39 | O=C(Nc1ccc(Cl)cc1)N(Cc1cccc(O)c1)C1CCC(O)CC1 (stereo unspecified) | inconclusive: 50.1 µM [inhibitor, partial curve, poor fit] | 
40 | CCC(CC)C(=O)Nc1nn2c(CC(C)C)nnc2s1 | active: 15.8 µM | 
41 | O=C(c1ccc([N+](=O)[O-])cc1)N1CCN(C(=O)c2ccco2)CC1 |  | inactive: -11.3%
42 | Cc1[nH]c(=O)c(C(=O)/C=C/c2ccccc2F)c2c1CCCC2 |  | inactive: -6.24%
43 | COc1ccc2[nH]c3c(c2c1)CCN1C(=O)C(CC(=O)NCc2ccco2)C[C@H](C(=O)N2CCOCC2)[C@@]31CCC1CCCC1 (stereo partly specified) | inconclusive: 126 µM [inhibitor, single point] | 
44 | CN(C(=O)COC(=O)c1ccc(=O)n(Cc2ccccc2)n1)c1ccccc1 | inconclusive: 2.51 µM [inhibitor, partial curve, poor fit] | 

Row | SMILES | Potency | activity change, negative = inhibition
45 | Cc1cccc(-c2c3c(=O)n(C)c(=O)n(C)c3c3n2CCOC3c2coc3ccccc3c2=O)c1 (stereo unspecified) | inconclusive: 39.8 µM [inhibitor, partial curve, poor fit] | 
46 | CC(=O)Nc1ccc(NC(=O)COc2cccc(F)c2)c(C(F)(F)F)c1 | inconclusive: 89.1 µM [inhibitor, single point] | 
47 | S=C(c1cn(CCOc2cccc3ccccc23)c2ccccc12)N1CCCC1 | inconclusive: 14.1 µM [inhibitor, full curve] | 
48 | CCC(=O)Nc1ccc(-c2nnc(-c3ccccc3)o2)cc1 |  | inactive: -2.14%
49 | COc1cccc(C(=O)OC(C)CN2CCCC2)c1 (stereo unspecified) |  | inactive: 0%
50 | Cc1sc2nc(CSCC(=O)NC(C)(C)C)[nH]c(=O)c2c1C |  | inactive: 469%
51 | CCNC(=S)NS(=O)(=O)c1ccc(C)cc1 | inconclusive: 44.7 µM [inhibitor, partial curve, poor fit] | 
52 | O=C(O)CCC(NC(=O)C(c1ccccc1)c1ccccc1)C(=O)O (stereo unspecified) | inconclusive: 89.1 µM [inhibitor, single point] | 
53 | CCc1ccc(C(=O)Cn2ccsc2=N)cc1 | inconclusive: 35.5 µM [inhibitor, partial curve, poor fit] | 
54 | NCCCC[C@H]1CNC(=S)N1CC1(c2ccccc2)CC1 |  | inactive: 8.63%
55 | COCCn1nnnc1CN1CCN(c2cccc(C(F)(F)F)c2)CC1 | inconclusive: 35.5 µM [inhibitor, partial curve, poor fit] | 
56 | COCCN(C(=S)Nc1ccc(C)c(C)c1)C(C)c1ccco1 (stereo unspecified) |  | inactive: -13.1%
57 | O=C(CCc1ncc(-c2ccccc2)o1)Nc1nc2ccccc2s1 |  | inactive: -24.4%
58 | O=C(COC(=O)c1cc(-c2cccs2)nc2ccccc12)NCC1CCCO1 (stereo unspecified) | inconclusive: 44.7 µM [inhibitor, partial curve, poor fit] | 
59 | Clc1ccc2nc(-c3ccccc3)cn2c1 |  | inactive: 11.2%
60 | Cc1ccccc1OCCCC(=O)Nc1ccc(Br)cc1 | inconclusive: 39.8 µM [inhibitor, single point] | 
61 | O=C(Nc1nncs1)C1CC(=O)N(CCc2ccc(F)cc2)C1 (stereo unspecified) | inconclusive: 50.1 µM [inhibitor, partial curve, poor fit] | 
62 | Cc1ccc2cc(CN(Cc3ccco3)C(=S)NCC3CCCO3)c(=O)[nH]c2c1C (stereo unspecified) |  | inactive: -29.2%
63 | C[C@H](CO)N1C[C@H](C)[C@@H](CN(C)C(=O)Nc2ccccc2F)Oc2cc(Br)ccc2S1(=O)=O | inconclusive: 89.1 µM [inhibitor, single point] | 
64 | Cc1cccc(C(c2sc3nc(-c4ccco4)nn3c2O)N2CCOCC2)c1 (stereo unspecified) | inconclusive: 15.8 µM [inhibitor, full curve, poor fit] | 
65 | CCc1nnc(CNC(=O)c2cn(CCN3CCNCC3)nn2)s1 | inconclusive: 11.2 µM [inhibitor, partial curve, poor fit] | 
66 | CCCN(CC1CC1)C(=O)c1c(OCC2CC2)cc(=O)n2c1CCCCC2 |  | inactive: 69.5%

Nos. 52–53, quoted:
Row | SMILES | Potency | activity change, negative = inhibition
52 | O=C(O)CCC(NC(=O)C(c1ccccc1)c1ccccc1)C(=O)O (stereo unspecified) | inconclusive: 89.1 µM [inhibitor, single point] | 
53 | CCc1ccc(C(=O)Cn2ccsc2=N)cc1 | inconclusive: 35.5 µM [inhibitor, partial curve, poor fit] | 

— PubChem BioAssay AID1671190 (National Center for Advancing Translational Sciences (NCATS), 2021)
